Measurements taken from patent US9161537B2, “Substituted 4-cyan-3-phenyl-4-(pyridine-3-yl)butanoates, processes for preparation thereof and use thereof as herbicides and plant growth regulators” (BAYER INTELLECTUAL PROPERTY GMBH, priority 2011, dated 2015).
Some of these results come from one statement about several compounds together. Some ranges recur; such a range may be that of the whole group of compounds.

Experiments:
Assay type in all cases: in vivo
Echinochloa crus-galli [1] = assay: Herbicidal pre-emergence action, greenhouse pot test; conditions: pre-emergence method; 0.32 kg of active substance per hectare; scored visually after about 3 weeks
Setaria virides [2] = assay: as above; conditions: pre-emergence method; 0.32 kg of active substance per hectare; scored visually after about 3 weeks
Echinochloa crus-galli [3] = assay: Herbicidal post-emergence action, greenhouse pot test; conditions: post-emergence method; 0.32 kg of active substance per hectare; rated visually after about 3 weeks
Polygonum convulvus = assay: as above; conditions: post-emergence method; 0.32 kg of active substance per hectare; rated visually after about 3 weeks
Setaria virides [4] = assay: as above; conditions: post-emergence method; 0.32 kg of active substance per hectare; rated visually after about 3 weeks
Veronica persica = assay: Herbicidal pre-emergence action, greenhouse pot test; conditions: pre-emergence method; 0.32 kg of active substance per hectare; scored visually after about 3 weeks

Row | SMILES | very good activity (Echinochloa crus-galli [1]) | good activity (Setaria virides [2]) | very good activity (Echinochloa crus-galli [3]) | good activity (Polygonum convulvus) | good activity (Setaria virides [4]) | very good activity (Veronica persica)
1 | COC(=O)CC(c1cccc(C)c1)C(C#N)c1cccnc1 (stereo not drawn) [threo-Ibb17] | 90-100% | 80-100% | – | – | – | –
2 | COC(=O)CC(c1ccc(OC)cc1)C(C#N)c1cccnc1 (stereo not drawn) [threo-Ibb8] | 90-100% | – | 80-100% | 80-100% | – | –
3 | CCOC(=O)C[C@@H](c1ccc(Cl)c(Cl)c1)[C@@H](C#N)c1cccnc1 (racemic) [threo-Ibc43] | 90-100% | 80-100% | 80-100% | 80-100% | – | –
4 | CCOC(=O)CC(c1ccc(Br)cc1)C(C#N)c1cccnc1 (racemic) [threo-Ibc3] | – | 80-100% | – | – | 80-100% | –
5 | CCCOC(=O)CC(c1ccc(Cl)cc1)C(C#N)c1cccnc1 (racemic) [erythro-Ibd2] | – | – | 80-100% | – | – | –
6 | COC(=O)CC(c1ccc(I)cc1)C(C#N)c1cccnc1 (racemic) [erythro-Ibb4] | 90-100% | – | – | – | – | –
7 | CCCOC(=O)CC(c1ccc(Cl)cc1)C(C#N)c1cccnc1 (racemic) [threo-Ibd2] | 90-100% | 80-100% | – | – | 80-100% | –
8 | COC(=O)CC(c1ccc(I)cc1)C(C#N)c1cccnc1 (racemic) [threo-Ibb4] | – | 80-100% | 80-100% | – | – | 80-100%
9 | CCOC(=O)CC(c1ccc(Br)cc1)C(C#N)c1cccnc1 (racemic) [erythro-Ibc3] | 90-100% | – | 80-100% | – | – | –
